This assay addresses endogenous DHX15 (human (endogenous in HeLa)) (UniProt O43143). The assay is described as follows: co-IP; endogenous proteins, antibody on protein-G Sepharose, extracts of HeLa, HCC1809, U2OS and HEK293 cells, 2 h at 4°C, washes with 0.1 M NaCl, Western blot; sheep IgG as control; RNase A treatment of the IP in Fig 1F.

Chains of the proteins cited; added tags and fusions are not shown.
UniProt O43143: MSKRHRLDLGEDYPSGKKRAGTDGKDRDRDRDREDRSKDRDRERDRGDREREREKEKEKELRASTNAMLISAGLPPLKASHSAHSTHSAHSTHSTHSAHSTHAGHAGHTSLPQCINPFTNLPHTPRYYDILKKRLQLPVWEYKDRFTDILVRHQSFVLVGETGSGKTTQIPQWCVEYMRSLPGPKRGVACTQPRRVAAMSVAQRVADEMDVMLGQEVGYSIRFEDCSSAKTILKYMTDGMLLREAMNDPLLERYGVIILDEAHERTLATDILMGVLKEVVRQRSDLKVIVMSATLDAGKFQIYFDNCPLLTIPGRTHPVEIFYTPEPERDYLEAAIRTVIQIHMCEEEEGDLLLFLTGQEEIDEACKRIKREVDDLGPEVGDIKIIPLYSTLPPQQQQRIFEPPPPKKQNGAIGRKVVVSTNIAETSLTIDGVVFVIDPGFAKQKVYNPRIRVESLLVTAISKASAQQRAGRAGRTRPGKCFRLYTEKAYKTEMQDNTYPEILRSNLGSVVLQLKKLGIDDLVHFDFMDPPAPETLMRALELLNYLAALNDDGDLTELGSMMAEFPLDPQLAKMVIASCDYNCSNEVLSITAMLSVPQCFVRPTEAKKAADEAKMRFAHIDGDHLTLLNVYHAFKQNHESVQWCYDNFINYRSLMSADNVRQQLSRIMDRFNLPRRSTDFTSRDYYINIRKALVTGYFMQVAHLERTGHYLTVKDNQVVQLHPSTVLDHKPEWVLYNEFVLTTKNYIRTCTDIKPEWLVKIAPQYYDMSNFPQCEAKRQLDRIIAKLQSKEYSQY
UniProt O43148: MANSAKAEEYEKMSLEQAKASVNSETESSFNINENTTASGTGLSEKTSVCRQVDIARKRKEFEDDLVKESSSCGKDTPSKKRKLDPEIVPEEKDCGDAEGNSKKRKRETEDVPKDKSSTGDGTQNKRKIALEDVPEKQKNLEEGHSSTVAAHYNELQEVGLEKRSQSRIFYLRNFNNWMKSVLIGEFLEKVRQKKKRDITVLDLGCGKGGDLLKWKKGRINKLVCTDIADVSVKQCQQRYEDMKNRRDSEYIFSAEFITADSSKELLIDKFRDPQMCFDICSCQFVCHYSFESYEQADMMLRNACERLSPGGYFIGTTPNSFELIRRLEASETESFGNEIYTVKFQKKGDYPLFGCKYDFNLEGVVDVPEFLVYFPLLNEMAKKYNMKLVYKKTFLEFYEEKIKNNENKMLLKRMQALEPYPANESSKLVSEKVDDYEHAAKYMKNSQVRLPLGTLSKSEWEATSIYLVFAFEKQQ

Results are given in words; binding and its absence hold for the method and conditions named. Binding seen in cells or lysates may run through a third protein.

For “RNMT (RNA guanine-7 methyltransferase) (from UniProt O43148 1-476) (enzyme)”, the binding entry was “no binding”.

These data come from article PMC6071836.
